Test results published in US5770178A, “Metal chelate forming peptides and use thereof” (Nihon Medi-Physics Co., Ltd., priority 1994, dated 1998).

Assay: Radiolabeling rate with Tc-99m at room temperature (HPLC), index of metal chelating ability
Type: physicochemical
Details: room temperature 60 min
[1] = Concentration of Sample 50 μg/ml
[2] = Concentration of Sample 100 μg/ml
[3] = Concentration of Sample 25 μg/ml
[4] = Concentration of Sample 5 μg/ml
[5] = Concentration of Sample 10 μg/ml

Substance | Radiolabeling rate (%) with Tc-99m [1] [%] | Radiolabeling rate (%) with Tc-99m [2] [%] | Radiolabeling rate (%) with Tc-99m [3] [%] | Radiolabeling rate (%) with Tc-99m [4] [%] | Radiolabeling rate (%) with Tc-99m [5] [%]
KPCAREPPTRTFAYWGQG | 51.0 ± 0.13 | 53.6 ± 0.81 | – | – | –
YKCAREPPTRTFAYWGQG | 97.6 | 98.1 | 96.9 | – | –
KYCAREPPTRTFAYWGQG | 96.4 ± 0.32 | 97.8 ± 0.69 | 92.2 ± 1.39 | 39.1 ± 1.59 | 79.6 ± 6.62
YYCAREPPTRTFAYWGQG | 97.9 ± 0.57 | 99.4 ± 0.39 | 93.4 ± 2.51 | 29.2 ± 17.2 | 79.4 ± 1.71
KGCAREPPTRTFAYWGQG | 93.2 ± 1.77 | 98.2 ± 0.11 | 91.9 ± 4.73 | – | –
D-KYCAREPPTRTFAYWG-D-QG (D-amino acids; C-terminal D-QG) | – | 99.8 ± 0.11 | 97.7 ± 0.33 | 10.5 ± 0.43 | –
D-KPCAREPPTRTFAYWGQG (D-amino acid) | 67.1 ± 0.06 | 69.1 ± 1.86 | – | – | –
DYCAREPPTRTFAYWGQG | 98.1 ± 0.45 | 100 ± 0.00 | 90.6 ± 1.95 | 28.7 ± 6.34 | 88.9 ± 2.82
